Test results as given in patent US6593295 (dated 2003).

Test: general procedure: Fmoc solid-phase peptide synthesis; Fmoc protected Rink Amide MBHA resin; HBTU with NMM activation in DMF
Conditions: whole synthesis, RP-HPLC mass spectrometry, Hewlett Packard LCMS-1100 with diode array detector and electro-spray ionization, scale of the general procedure 100 μmole, 4TFA

| Substance | final LC-MS purity |
| --- | --- |
| D-Ala^8 GLP-1 (7-36)-Lys^37(ε-MPA)-NH2.4TFA | >95% |
| D-Ala^8 GLP-1 (7-36)-Lys^37(ε-AEEA-AEEA-MPA)-NH2.4TFA | >95% |

One purity is given for all peptides; the source may state it once.
